Assay [1] deals with Androgen receptor (human (endogenous in LNCaP and C4-2)) (UniProt P10275). Nature of the assay: co-IP; endogenous proteins in lysates of C4-2 and LNCaP cells, untreated or treated with 5 μM JS-K (3, 6 and 9 h, or 9 h); IP lysis buffer 20 mM Tris pH 7.5, 150 mM NaCl, 1% Triton X-100, 1 mM EDTA; primary antibody overnight at 4 °C, Protein A/G Agarose 4 h at 4 °C; Western blot.
The target is the same in assay [2]. The assay is described as above. This is another data set of the same source.

By UniProt entry, the sequences of proteins in these tests, tags left out.
UniProt P10275: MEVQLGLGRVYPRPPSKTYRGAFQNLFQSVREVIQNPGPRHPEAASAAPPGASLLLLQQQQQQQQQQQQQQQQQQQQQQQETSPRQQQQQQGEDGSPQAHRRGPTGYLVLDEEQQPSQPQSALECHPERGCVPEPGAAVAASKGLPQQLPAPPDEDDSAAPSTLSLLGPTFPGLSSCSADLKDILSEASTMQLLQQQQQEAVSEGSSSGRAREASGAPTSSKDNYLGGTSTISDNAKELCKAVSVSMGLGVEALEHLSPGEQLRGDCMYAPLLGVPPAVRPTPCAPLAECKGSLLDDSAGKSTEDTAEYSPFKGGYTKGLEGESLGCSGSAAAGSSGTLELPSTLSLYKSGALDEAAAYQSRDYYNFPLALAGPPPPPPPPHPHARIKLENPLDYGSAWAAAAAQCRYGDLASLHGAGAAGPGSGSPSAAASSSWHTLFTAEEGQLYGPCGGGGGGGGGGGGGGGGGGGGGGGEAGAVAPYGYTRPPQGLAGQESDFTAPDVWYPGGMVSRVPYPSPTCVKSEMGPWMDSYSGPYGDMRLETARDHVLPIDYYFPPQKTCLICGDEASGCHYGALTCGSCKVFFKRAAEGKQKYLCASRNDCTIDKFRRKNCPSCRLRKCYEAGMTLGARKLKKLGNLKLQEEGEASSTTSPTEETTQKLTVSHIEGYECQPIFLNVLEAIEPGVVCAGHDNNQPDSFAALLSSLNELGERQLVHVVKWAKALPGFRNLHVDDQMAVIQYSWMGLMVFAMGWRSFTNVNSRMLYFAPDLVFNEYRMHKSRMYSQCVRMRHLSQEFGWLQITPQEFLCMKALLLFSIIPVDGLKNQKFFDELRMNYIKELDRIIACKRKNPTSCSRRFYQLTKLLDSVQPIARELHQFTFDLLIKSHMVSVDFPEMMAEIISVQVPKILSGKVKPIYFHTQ
UniProt O75376: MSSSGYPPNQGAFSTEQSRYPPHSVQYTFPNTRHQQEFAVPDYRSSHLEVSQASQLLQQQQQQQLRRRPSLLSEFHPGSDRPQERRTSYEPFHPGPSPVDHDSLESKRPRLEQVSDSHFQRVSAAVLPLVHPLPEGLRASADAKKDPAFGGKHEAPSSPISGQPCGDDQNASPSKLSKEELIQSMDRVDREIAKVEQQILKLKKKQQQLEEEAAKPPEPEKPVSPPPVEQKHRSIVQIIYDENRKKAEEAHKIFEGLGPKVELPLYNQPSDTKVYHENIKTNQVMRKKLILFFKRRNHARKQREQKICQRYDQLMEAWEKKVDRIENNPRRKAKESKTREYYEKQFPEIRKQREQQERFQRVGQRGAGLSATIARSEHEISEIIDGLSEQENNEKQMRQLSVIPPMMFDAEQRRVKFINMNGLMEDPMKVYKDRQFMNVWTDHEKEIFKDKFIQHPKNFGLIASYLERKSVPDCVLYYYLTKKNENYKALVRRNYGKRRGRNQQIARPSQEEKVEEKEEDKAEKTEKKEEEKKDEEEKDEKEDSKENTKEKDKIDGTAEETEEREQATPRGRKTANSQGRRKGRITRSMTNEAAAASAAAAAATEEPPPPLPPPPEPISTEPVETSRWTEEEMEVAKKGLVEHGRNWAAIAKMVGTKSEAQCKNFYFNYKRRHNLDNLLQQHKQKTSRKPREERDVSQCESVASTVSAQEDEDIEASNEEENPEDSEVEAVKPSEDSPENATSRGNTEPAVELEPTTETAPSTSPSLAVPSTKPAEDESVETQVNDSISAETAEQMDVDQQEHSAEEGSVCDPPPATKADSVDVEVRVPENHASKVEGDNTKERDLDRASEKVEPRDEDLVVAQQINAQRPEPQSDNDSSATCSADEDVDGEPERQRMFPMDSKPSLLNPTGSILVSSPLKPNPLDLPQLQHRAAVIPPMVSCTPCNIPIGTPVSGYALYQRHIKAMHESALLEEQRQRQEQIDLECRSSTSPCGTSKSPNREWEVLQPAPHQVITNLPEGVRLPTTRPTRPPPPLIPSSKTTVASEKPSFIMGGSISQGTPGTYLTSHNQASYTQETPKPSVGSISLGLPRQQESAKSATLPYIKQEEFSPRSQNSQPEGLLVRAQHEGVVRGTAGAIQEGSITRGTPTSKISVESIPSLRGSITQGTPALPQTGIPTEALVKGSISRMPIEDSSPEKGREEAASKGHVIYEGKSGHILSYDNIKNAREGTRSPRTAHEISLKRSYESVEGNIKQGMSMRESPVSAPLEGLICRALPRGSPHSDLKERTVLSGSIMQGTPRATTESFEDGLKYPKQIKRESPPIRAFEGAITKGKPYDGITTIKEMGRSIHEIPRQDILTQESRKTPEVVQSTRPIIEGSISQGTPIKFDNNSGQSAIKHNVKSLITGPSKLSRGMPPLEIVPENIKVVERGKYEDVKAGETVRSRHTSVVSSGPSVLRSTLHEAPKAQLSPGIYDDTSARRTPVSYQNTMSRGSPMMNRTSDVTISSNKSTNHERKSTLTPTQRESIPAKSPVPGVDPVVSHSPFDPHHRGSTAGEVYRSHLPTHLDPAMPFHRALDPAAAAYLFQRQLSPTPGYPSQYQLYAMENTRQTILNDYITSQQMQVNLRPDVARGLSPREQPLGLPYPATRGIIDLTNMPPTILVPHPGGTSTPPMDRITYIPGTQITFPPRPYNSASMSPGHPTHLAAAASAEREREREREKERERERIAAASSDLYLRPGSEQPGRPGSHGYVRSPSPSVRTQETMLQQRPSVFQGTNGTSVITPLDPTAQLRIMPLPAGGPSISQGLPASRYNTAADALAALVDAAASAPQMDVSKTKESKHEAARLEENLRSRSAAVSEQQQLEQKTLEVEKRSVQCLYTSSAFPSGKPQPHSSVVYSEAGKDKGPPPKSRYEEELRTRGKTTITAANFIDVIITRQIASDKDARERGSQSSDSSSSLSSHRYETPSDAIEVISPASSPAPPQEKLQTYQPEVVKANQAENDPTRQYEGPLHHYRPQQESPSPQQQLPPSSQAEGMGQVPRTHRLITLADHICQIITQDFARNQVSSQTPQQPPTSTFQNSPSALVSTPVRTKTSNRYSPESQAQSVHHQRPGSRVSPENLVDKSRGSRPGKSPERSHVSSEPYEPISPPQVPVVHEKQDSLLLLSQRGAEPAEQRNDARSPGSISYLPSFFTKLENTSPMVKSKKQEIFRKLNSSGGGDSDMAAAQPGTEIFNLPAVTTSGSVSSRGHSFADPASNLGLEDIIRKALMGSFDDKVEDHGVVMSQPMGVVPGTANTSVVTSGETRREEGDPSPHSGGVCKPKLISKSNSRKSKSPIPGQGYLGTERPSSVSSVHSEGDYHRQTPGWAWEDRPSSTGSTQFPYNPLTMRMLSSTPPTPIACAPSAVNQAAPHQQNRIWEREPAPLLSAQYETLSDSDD

Here are results for two molecules from PMC5446692.

Read-outs that look alike come from different tables or passages of the source. These are yes or no findings as the source states them, for the method shown. In cells and extracts the contact can be indirect. Some binding calls cover weakened binding; strength is not graded here.

As to NCoR1 (from UniProt O75376 1-2440), in assay [1], the binding result is reported as “binds”.

B1: Siah2 (enzyme, UniProt O43255 1-324)
chain: MSRPSSTGPSANKPCSKQPPPQPQHTPSPAAPPAAATISAAGPGSSAVPAAAAVISGPGGGGGAGPVSPQHHELTSLFECPVCFDYVLPPILQCQAGHLVCNQCRQKLSCCPTCRGALTPSIRNLAMEKVASAVLFPCKYATTGCSLTLHHTEKPEHEDICEYRPYSCPCPGASCKWQGSLEAVMSHLMHAHKSITTLQGEDIVFLATDINLPGAVDWVMMQSCFGHHFMLVLEKQEKYEGHQQFFAIVLLIGTRKQAENFAYRLELNGNRRRLTWEATPRSIHDGVAAAIMNSDCLVFDTAIAHLFADNGNLGINVTISTCCP
Consider B1, for which the binding entry in assay [2] is “binds”.
